The campaign covered roughly 350,000 compounds. About 220 (0.063%) were called active. The inconclusive results got no clear call from the source; some entries with a clear call stand among them for comparison. Calls follow the shape of the dose curve; as a rule, active = well fitted activation curve with a large enough effect; inconclusive = small, poorly fitted or top-dose-only effect; inactive = no such curve, though single readings can be large or run the other way. Potencies beside an inconclusive call are fits to weak or partial responses and may not hold up.
Assay: qHTS for Activators of Integrin-Mediated Alleviation for Muscular Dystrophy; also: nearly all actives have a fitted effect of over 60% in size;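 as to activation: 100% = response of the positive control SU9516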
Details: alpha7betagal myoblasts, beta-gal FDG fluorescence, 48 h; activation: at 38.3 µM (top of the series)
Outline: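 Alpha7betagal+/- myoblasts (passage 13) were plated 16-24 hr, then exposed to compounds (1:260 dilution of DMSO stock) for 48 hours at 37C. After MPER lysis, β-galactosidase reporter activity was read as FDG fluorescence (ex 480/em 540) after 30 minutes.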
Potency is read from the fitted curve at half-maximal effect.

Potency, active:
COc1ccc(N(CC(=O)NCCC(C)C)C(=O)c2snc(C(=O)NC3CCCCC3)c2N)c(OC)c1 10 µM

Potency, inconclusive:
O=C(CSc1nnc(C2CCCCC2)o1)Nc1ccccc1Cl 2 µM [activator, partial curve, poor fit]
O=C1CSC(c2cccnc2)N1CCc1ccccn1 (configuration not stated) 3.16 µM [activator, single point]
Brc1ccc(-c2ccc(/C=N/Nc3nc4ccccc4[nH]3)o2)cc1 5.01 µM [activator, single point]
C/C(=N/NS(=O)(=O)c1ccc(Br)cc1)c1ccc(NC(=O)c2ccc(C)o2)cc1 17.8 µM [activator, single point]
Cc1ccc(-c2nnc(CN3CCCCC3C)o2)cc1 (configuration not stated) 28.2 µM [activator, single point]
CCc1ccccc1NC(=O)CN1CCN(CC(=O)Nc2cc(C)ccc2OC)CC1 28.2 µM [activator, single point]
O=C(c1ccc(N2C(=O)c3ccccc3C2=O)cc1)N1CCCCC1 3.16 µM [activator, single point]
COc1ccc(NC(=O)CSc2nnc(Cc3ccc(C)cc3)c(=O)n2N)cc1 10 µM [activator, partial curve]
c1ccc(OCC2CCNCC2)nc1 22.4 µM [activator, single point]
Clc1ccccc1-c1nnc2n1CCCCC2 8.91 µM [activator, partial curve, poor fit]
Cc1ccc(CC(=O)Nc2cc(C)on2)cc1 1.78 µM [activator, partial curve, poor fit]
CC1(C)Cc2c(c(N3CCOCC3)nc3sc4c(NCC5CCCO5)nnnc4c23)CS1 (configuration not stated) 5.01 µM [activator, single point]
Cc1sc(-c2cccnc2)nc1OC(=O)C1CC1 10 µM [activator, single point]
O=C1NC(=O)C(Cc2cccc(Oc3ccccc3)c2)S1 (configuration not stated) 2.82 µM [activator, partial curve, poor fit]
CC(C)Nc1nc(-c2ccncc2)nc(-c2ccccc2)c1C#N 5.01 µM [activator, single point]
O=C(Cc1ccc(Br)cc1)Nc1ccccc1N1CCCC1 5.01 µM [activator, partial curve, poor fit]
CCCOC(=O)c1ccc(NC(=O)C(CC)CC)cc1 3.98 µM [activator, single point]
CCCc1ccc(OC(=O)c2ccc(O)cc2Cl)cc1 15.8 µM [activator, partial curve, poor fit]
O=C(O)c1nc(-c2ccccc2)n(-c2cccc(C(F)(F)F)c2)n1 10 µM [activator, partial curve, poor fit]
Cc1cc(C)nc(OC(C(=O)O)C(OCCC(C)C)(c2ccccc2)c2ccccc2)n1 (configuration not stated) 5.01 µM [activator, single point]
CC(C)C(C(=O)Nc1ccc(S(=O)(=O)N2CCOCC2)cc1)N1C(=O)c2ccccc2C1=O (configuration not stated) 0.316 µM [activator, full curve, poor fit]
Cc1ccc2c(c1)cc(C(=O)NCc1ccccc1)n2C 1.78 µM [activator, partial curve, poor fit]
CCCc1cc(=O)oc2c(C)c(OCC(=O)Nc3ccccn3)ccc12 1.41 µM [activator, single point]
CCOC(=O)c1nnc(-c2ccccc2)nc1NC 0.355 µM [activator, partial curve, poor fit]
C=CCNC(=O)c1nn2cccnc2c1Cl 5.01 µM [activator, single point]
COC(=O)c1c(C)[nH]c(C(=O)C(C)OC(=O)c2c(C)noc2C)c1C (configuration not stated) 3.98 µM [activator, single point]
Cc1ccc(S(=O)(=O)N2CCCOC2CNC(=O)C(=O)NCCN2CCOCC2)cc1 (configuration not stated) 5.01 µM [activator, single point]
CCC(C)c1ccccc1NC(=O)c1cc(C)no1 (configuration not stated) 31.6 µM [activator, single point]

At a glance, 2 of the compounds above.
Potency, inconclusive:
Cc1ccc(CC(=O)Nc2cc(C)on2)cc1 1.78 µM [activator, partial curve, poor fit]
CC1(C)Cc2c(c(N3CCOCC3)nc3sc4c(NCC5CCCO5)nnnc4c23)CS1 (configuration not stated) 5.01 µM [activator, single point]

Next part.

activation, inactive:
O=C(CCNS(=O)(=O)c1cccc(C(F)(F)F)c1)NC1CC1 -13.9%
CC(=O)N1CCN(C(=O)COC(=O)c2ccc(S(C)(=O)=O)cc2)CC1 9.2%
COc1ccc(-c2nnc(NC(=O)c3ccco3)s2)cc1 12.9%
CCOC(=O)c1cnc(-c2ccccc2)nc1Oc1ccc(Cl)c(Cl)c1 -9.96%
O=C(COc1ccccc1C(=O)NCC1CCCO1)Nc1ccc(Cl)cc1Cl (configuration not stated) -8.69%
Cc1cc(OCC(O)CN2CCCC2)cc(C)c1Cl (configuration not stated) -48.7%
CCOC(=O)c1c(C)[nH]c(C)c1C(=O)COC(=O)/C=C/c1ccc(OC)cc1 -17.3%
O=[N+]([O-])c1ccc(-c2ccc(/C=N/Nc3nc(N4CCCCC4)nc(N4CCCCC4)n3)o2)cc1 7.14%
C#Cc1ccc([C@H]2C=C(C(=O)NCc3nc4ccccc4[nH]3)O[C@@H](OCc3ccc(CO)cc3)C2)cc1 -8.8%
CN(C)c1ccc(CNC(=O)CCS(=O)(=O)c2ccc3c(c2)oc(=O)n3C)cc1 1.44%
O=C(NCC1CC1)c1ccc2c3n(nc2c1)-c1ccc(Cl)cc1CO3 -9.1%
Cc1ccc(Nc2c(-c3ccco3)nc3ccccn23)cc1 -15%
O=C(Nc1nc2ccccc2[nH]1)c1ccc(OC(F)F)cc1 2.89%
Cc1cc(C(=O)N/N=C/c2ccc(-c3ccc([N+](=O)[O-])cc3Cl)o2)n[nH]1 -16.9%
CCN1CCN(c2cc(C)c3cc(NC(=S)N4CCN(c5ccccc5)CC4)ccc3n2)CC1 -66.9%
COC(=O)N1C(=O)[C@](c2ccccc2)(C2CCCC2)N1C(=O)OC -1.23%
COc1cc(/C=C2\SC(N)=NC2=O)cc(OC)c1 -16.1%
S=C(NCc1ccccc1)NCC1COc2ccccc2O1 (configuration not stated) 12.6%

Source: PubChem BioAssay AID624291 (National Center for Advancing Translational Sciences (NCATS), 2012)
